# Laboratory results from patent publication US8247552B2, “Analogs of dehydrophenylahistins and their therapeutic use” (Nereus Pharmaceuticals, Inc., priority 2002, dated 2012).
# “And” between values parts separate entries of the source, which are not always exact repeats. Equal values may be shown once.
# Tests used:
# [1] = test system: MES-SA (Taxol sensitive) human uterine sarcoma; test: Cytotoxicity / growth inhibition in drug-sensitive uterine sarcoma cells; format: cell-based; details: Table 13; ratio of IC50 with CsA pretreat to No CsA in MES-SA
# [2] = test system: MES-SA/Dx5 (Taxol resistant) human uterine sarcoma; test: Cytotoxicity / growth inhibition in multidrug resistant uterine sarcoma cells; format: cell-based; details: Table 13; ratio of IC50 resistant to MES-SA sensitive
# Experimental: 1) Human Uterine Sarcoma Tumor Cell Line Pair: MES-SA (Taxol Sensitive) and MES-SA/Dx5 (Taxol Resistant).
# HL-60 and HL-60/MX2 cells were both seeded at 5×10^4 cells/well in 90 μl complete media into 96 well plates on the day of compound addition. […] Ten μl volumes of the 10× serial dilutions were added to the test wells in triplicate and the plates returned to the incubator for 48 hours.
# Resazurin dye in medium without cells was used to determine the background, which was subtracted from the data for all experimental wells.
# The multidrug resistant MES-SA/Dx5 tumor cell line was derived from the human uterine sarcoma MES-SA tumor cell line and expresses elevated P-Glycoprotein (P-gp), an ATP dependent efflux pump. […] Paclitaxel, a known substrate of the P-gp pump was included as a control.
smiles,measurement,setting,value
CC(=O)O[C@H]1C(=O)[C@@]2(C)[C@H]([C@H](OC(=O)c3ccccc3)[C@]3(O)C[C@H](OC(=O)[C@H](O)[C@@H](NC(=O)c4ccccc4)c4ccccc4)C(C)=C1C3(C)C)[C@]1(OC(C)=O)CO[C@@H]1C[C@@H]2O [Taxol],"MES-SA Sensitive, CsA Pretreat, Ratio No CsA",[1],0.6 and 0.4
CC(C)(C)c1[nH]cnc1/C=C1\NC(=O)[C@H](Cc2ccccc2)NC1=O [t-butyl-phenylahistin],"MES-SA/DX5 Resistant, No CsA, Ratio MES-SA",[2],5.7 and 4.3
